From PMC8041304, “Halogen Atoms in the Protein–Ligand System. Structural and Thermodynamic Studies of the Binding of Bromobenzotriazoles by the Catalytic Subunit of Human Protein Kinase CK2” (The Journal of Physical Chemistry. B, 2021)

Sequences of proteins named here, by UniProt entry; tags and fusion partners are left off.
UniProt P68400, whole entry: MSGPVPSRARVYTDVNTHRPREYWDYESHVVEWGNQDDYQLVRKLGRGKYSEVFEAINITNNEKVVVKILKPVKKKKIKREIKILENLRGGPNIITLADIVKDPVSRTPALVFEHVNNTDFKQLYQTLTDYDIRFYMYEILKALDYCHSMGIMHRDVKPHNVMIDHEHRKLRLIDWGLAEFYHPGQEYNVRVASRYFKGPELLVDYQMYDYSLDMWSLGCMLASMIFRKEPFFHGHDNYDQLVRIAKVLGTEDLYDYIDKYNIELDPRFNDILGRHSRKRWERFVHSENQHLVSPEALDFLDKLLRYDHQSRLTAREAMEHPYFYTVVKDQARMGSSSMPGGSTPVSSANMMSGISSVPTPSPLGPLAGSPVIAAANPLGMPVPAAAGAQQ

Target: hCK2α (Homo sapiens, UniProt P68400)
Test: Isothermal titration calorimetry (MicroCal iTC200), reverse titration
Type: binding
Conditions: ΔSrt + ΔSHE(Ts) + ΔSother = 0

In the case of `Brc1cc2[nH]nnc2c(Br)c1Br` [4,5,6-Br3Bt], the “ΔSother, entropy change assigned to all other processes accompanying ligand binding” value was 6 ± 30 J∙mol-1∙K-1 and relatively minor.

Certain results were filed several times, with different values. The other results are left out here. The source may hold further records. Values given together differ, and nothing given here explains why; some may be repeats, others may stem from another dose, organism or construct than stated.
